Laboratory results published in article PMC12431657, “Discovery and mechanistic insights of dibenzoylmethane as a broad spectrum inhibitor of coronavirus” (PLOS Pathogens, 2025).
Where two headings read alike, the source gives them in different places. Out of some 3,300 compounds screened, about 60 (2%) showed an effect of 50% or more. Some of the results follow.

System: HCoV-OC43
Parameters: species or system RD; HTS, protection from HCoV-OC43 induced cell death, luminescent cell viability (CellCounting-Lite 2.0), inhibition rate
Conditions: 24 h post infection, 1 h compound pre-incubation, 10 µM, inhibitor

Structure (SMILES) | OC43 Inhibition rate | OC43 Inhibition rate (OC43 Inhibition rate, 24 h)
C[C@@H]1CC[C@@]2(OC1)O[C@H]1C[C@H]3[C@@H]4CC=C5C[C@@H](O[C@@H]6O[C@H](CO)[C@@H](O[C@@H]7O[C@H](CO)[C@@H](O)[C@H](O)[C@H]7O)[C@H](O)[C@H]6O[C@@H]6O[C@@H](C)[C@H](O)[C@@H](O)[C@H]6O)CC[C@]5(C)[C@H]4CC[C@]3(C)[C@H]1[C@@H]2C [Deltonin] | -3.7% | 
O=C(CCc1ccc(O)cc1)c1c(O)cc(O)cc1O [Phloretin] | -0.3% | 
CC(=O)OC/C1=C\[C@H]2[C@@H](OC(=O)/C=C/c3ccccc3)[C@@H](C)C[C@]2(OC(C)=O)C(=O)/C(C)=C/[C@@H]2[C@H](CC1)C2(C)C [Euphorbia factor L7a] | 75.3% | 
CC(=O)OCC1=C[C@@H]2OC(=O)C3=CO[C@@H](O[C@@H]4O[C@H](CO)[C@@H](O)[C@H](O)[C@H]4O)[C@H]1[C@@H]32 [Asperuloside] | 0.7% | 
C[C@H](CC[C@@H](O[C@@H]1O[C@H](CO[C@@H]2O[C@H](CO)[C@@H](O)[C@H](O)[C@H]2O)[C@@H](O)[C@H](O)[C@H]1O[C@@H]1O[C@H](CO)[C@@H](O)[C@H](O)[C@H]1O)C(C)(C)O)[C@H]1CC[C@@]2(C)[C@@H]3CC=C4[C@@H](CC[C@H](O[C@@H]5O[C@H](CO[C@@H]6O[C@H](CO)[C@@H](O)[C@H](O)[C@H]6O)[C@@H](O)[C@H](O)[C@H]5O)C4(C)C)[C@]3(C)[C@H](O)C[C@]12C [Mogroside V] | 0.3% | 
CC(=O)OCc1cocc2c(C=O)ccc1-2 [Baldrinal] | 0.3% | 
COc1c(C)c(O)cc2[o+]c(-c3ccccc3)ccc12 [Dracorhodin perchlorate] | 2.9% | 
CC(C)=C[C@H]1C[C@](C)(O)[C@@H]2[C@H]3CC[C@@H]4[C@@]5(C)CC[C@H](O[C@@H]6O[C@H](CO)[C@@H](O)[C@H](O[C@@H]7O[C@H](CO)[C@@H](O)[C@H](O)[C@H]7O)[C@H]6O[C@@H]6O[C@@H](CO)[C@H](O)[C@H]6O)C(C)(C)[C@@H]5CC[C@@]4(C)[C@@]34CO[C@@]2(C4)O1 [Bacoside A3] | -1.3% | 
CC(=O)O[C@@H]1CC[C@@]2(C)[C@@H](CC[C@]3(C)[C@@H]2CC=C2[C@@H]4CC(C)(C)CC[C@]4(C)CC[C@]23C)[C@@]1(C)C(=O)O [3-O-Acetyl-α-boswellic acid] | 0% | 
O=C1C=C(O)C(=O)c2ccccc21 [Lawsone] | -0.1% | 
C/C=C(/C)C(=O)O[C@H]1c2cc(OC)c(OC)c(OC)c2-c2c(cc(OC)c(OC)c2OC)C[C@H](C)[C@]1(C)O [Angeloylgomisin Q] | 0.8% | 
CN1CC(=O)NC1=O [N-Methylhydantoin] | -0.4% | 
CC1(C)[C@@H]2CC[C@@]1(C)[C@H](O)C2 [Isoborneol] | -0.3% | 
NCCCCNCCCN [Spermidine] |  | -0.8%
CC(CO)C(=O)O (stereo not drawn) [3-Hydroxyisobutyric acid] | 0.6% | 
O=C(OCc1ccccc1)c1ccccc1O [Benzyl salicylate] | 0.1% | 
COc1cc2c(=O)c(-c3ccc(O)cc3)coc2cc1O [Glycitein] | 2.8% | 
O=C(CCCCc1ccc2c(c1)OCO2)N1CCCCC1 [Tetrahydropiperine] | 0.1% | 
O=C(/C=C/c1ccccc1)c1ccccc1 [Chalcone] |  | 0%

Structure (SMILES) | OC43 Inhibition rate | OC43 Inhibition rate (OC43 Inhibition rate, 24 h)
COC(=O)CC(C)=O [Methyl acetylacetate] | -1.4% | 
COC(=O)C1=CO[C@@H](O[C@@H]2O[C@H](CO)[C@@H](O)[C@H](O)[C@H]2O)[C@H]2[C@@H]1[C@H](O)C[C@]2(C)OC(C)=O [Barlerin] | -0.3% | 
Oc1cc(O)c2c(c1)O[C@H](c1ccc(O)c(O)c1)[C@H](O)C2 [(-)-Epicatechin] | -0.7% | 
O=C(O)CCCCCCCCCCCCCCCCC(=O)O [Octadecanedioic acid] | -0.2% | 
CC(C)=CCC12Oc3cc(O)ccc3C1(O)Oc1cc(O)c([C@H]3C=C(C)C[C@@H](c4ccc(O)cc4O)[C@@H]3C(=O)c3ccc(O)cc3O)c(O)c1C2=O (stereo partly drawn) [Sanggenon D] | 42.1% | 
CCCCC/C=C/C(=O)CCc1ccc(O)c(OC)c1 [Shogaol] | 2.7% | 
O=C(O)[C@@H](O)[C@H](O)[C@H](O)[C@@H](O)C(=O)O [Mucic acid] | -0.6% | 
N[C@H]1C(O)O[C@H](CO)[C@@H](O)[C@@H]1O (stereo partly drawn) [Glucosamine (sulfate)] |  | -0.2%
C/C=C(/C)C(=O)Oc1c(OC)c(OC)cc2c1-c1c(cc(OC)c(OC)c1OC)C[C@](C)(O)[C@@H](C)C2 [Angeloylgomisin H] | -1.4% | 
O=C1C[C@@H](c2ccc(O[C@@H]3O[C@H](CO)[C@@H](O)[C@H](O)[C@H]3O)cc2)Oc2cc(O)cc(O)c21 [Choerospondin] | 0.4% | 
CC(C)=CCc1c(O)ccc(C(=O)/C=C/c2ccc(O)cc2)c1O [Isobavachalcone] | 2% | 
C/C=C/c1ccc(OC)cc1 [Trans-Anethole] |  | 0.5%
CO[C@H]1/C=C/O[C@@]2(C)Oc3c(C)c(O)c4c(O)c(cc(O)c4c3C2=O)NC(=O)/C(C)=C\C=C\[C@H](C)[C@H](O)[C@@H](C)[C@@H](O)[C@@H](C)[C@H](OC(C)=O)[C@@H]1C [Rifamycin (sodium)] | 22.2% | 
CCCCCCCCCCCCCC(=O)O[C@@H]1[C@@H](C)[C@@]2(O)[C@@H](C=C(CO)C[C@]3(O)C(=O)C(C)=C[C@@H]23)[C@@H]2C(C)(C)[C@]12OC(C)=O [Phorbol 12-myristate 13-acetate] | 30.1% | 
C[C@H](CCC(=O)NCC(=O)O)[C@H]1CC[C@H]2[C@@H]3[C@@H](O)C[C@@H]4C[C@H](O)CC[C@]4(C)[C@H]3CC[C@]12C [Glycoursodeoxycholic acid] | -0.4% | 
CCO[C@@H]1O[C@H](C(=O)O)[C@@H](O)[C@H](O)[C@H]1O [Ethyl glucuronide] | 4.2% | 
Cn1c(=O)[nH]c(=O)c2[nH]cnc21 [3-Methylxanthine] | -0.2% | 
COc1ccc(-c2cc(=O)c3c(O)c(OC)c(O[C@@H]4O[C@H](CO[C@@H]5O[C@@H](C)[C@H](O)[C@@H](O)[C@H]5O)[C@@H](O)[C@H](O)[C@H]4O)cc3o2)cc1 [Pectolinarin] | 0.2% | 
COc1ccc(C[C@H]2COC(=O)[C@@H]2Cc2ccc(O[C@@H]3O[C@H](CO)[C@@H](O)[C@H](O)[C@H]3O)c(OC)c2)cc1OC [Arctiin] | -2.6% | 

Part of the list above in a different format.
CCCCC/C=C/C(=O)CCc1ccc(O)c(OC)c1 [Shogaol]
  OC43 Inhibition rate: 2.7%
O=C(O)[C@@H](O)[C@H](O)[C@H](O)[C@@H](O)C(=O)O [Mucic acid]
  OC43 Inhibition rate: -0.6%
N[C@H]1C(O)O[C@H](CO)[C@@H](O)[C@@H]1O (stereo partly drawn) [Glucosamine (sulfate)]
  OC43 Inhibition rate (OC43 Inhibition rate, 24 h): -0.2%
C/C=C(/C)C(=O)Oc1c(OC)c(OC)cc2c1-c1c(cc(OC)c(OC)c1OC)C[C@](C)(O)[C@@H](C)C2 [Angeloylgomisin H]
  OC43 Inhibition rate: -1.4%

Later entries.

Structure (SMILES) | OC43 Inhibition rate | OC43 Inhibition rate (OC43 Inhibition rate, 24 h)
O=C(O)[C@H](O)c1ccccc1 [D-(-)-Mandelic acid] | -1.3% | 
CCCCCCC/C=C/C(=O)N1C(=O)C(C(C)=O)=C(O)[C@H]1CC(C)C [Reutericyclin] | -0.7% | 
COc1cc(OC)c(CCC(=O)c2ccc(O)cc2)c(OC)c1 [Loureirin B] | 0.8% | 
O=c1c(O)c(-c2ccc(O)cc2)oc2cc(O)ccc12 [3,7,4'-Trihydroxyflavone] | 6.8% | 
N[C@@H](Cc1c[nH]c2ccc(O)cc12)C(=O)O [L-5-Hydroxytryptophan] |  | -0.8%
OCC1=C[C@@H](O)[C@]2(O[C@@H]3O[C@H](CO)[C@@H](O)[C@H](O)[C@H]3O)C=CO[C@@H](O[C@@H]3O[C@H](CO)[C@@H](O)[C@H](O)[C@H]3O)[C@H]12 [Melittoside] | 1.8% | 
Oc1ccc2c(c1)OC[C@H]1c3cc4c(cc3O[C@@H]21)OCO4 [Maackiain] |  | 2.3%
c1ccc2[nH]ccc2c1 [Indole] | -0.4% | 
COc1cc(O[C@@H]2O[C@H](CO[C@@H]3O[C@H](CO)[C@@H](O)[C@H](O)[C@H]3O)[C@@H](O)[C@H](O)[C@H]2O)c2c(O)c3c(=O)cc(C)oc3cc2c1 [Rubrofusarin gentiobioside] | 1.1% | 
Cn1cnc2[nH]c(=O)[nH]c(=O)c21 [7-Methylxanthine] | -1.5% | 
O=c1cc(-c2ccccc2)c2cc(O)c(O)cc2o1 [Nordalbergin] | 0.7% | 
O=C(O)CNC(=O)/C=C/c1ccccc1 [Cinnamoylglycine] | 0% | 
CC1CNC(=O)NC1=O (stereo not drawn) [5,6-Dihydro-5-methyluracil] | 0.1% | 
Cc1cc(O)c2c(c1)C(=O)c1cccc(O)c1C2=O [Chrysophanol] | 0.2% | 
COc1ccc(-c2cc(=O)c3c(O)cc(O[C@@H]4O[C@H](CO)[C@@H](O)[C@H](O)[C@H]4O)cc3o2)cc1 [Tilianin] | 8.5% | 
C[C@H](CCC(=O)O)[C@H]1CC[C@H]2[C@@H]3[C@H](O)CC4=CC(=O)CC[C@]4(C)[C@H]3CC[C@]12C [3-Oxo-7-hydroxychol-4-enoic acid] | -1% | 
O=c1ccc2cc(O)c(O)cc2o1 [Esculetin] | -0.3% | 
C[C@@H]1CC[C@@]2(OC1)O[C@H]1C[C@H]3[C@@H]4CC=C5C[C@@H](O)C[C@@H](O[C@@H]6O[C@H](C)[C@H](O)[C@H](O[C@@H]7OC[C@@H](O)[C@H](O)[C@H]7O)[C@H]6O[C@@H]6O[C@@H](C)[C@H](O)[C@@H](O)[C@H]6O)[C@]5(C)[C@H]4CC[C@]3(C)[C@H]1[C@@H]2C [Ophiopogonin D'] |  | -0.3%
COc1cc([C@@H]2OC[C@@H]3[C@H]2CO[C@H]3c2cc(OC)c(O)c(OC)c2)cc(OC)c1O [(-)-Syringaresinol] | 0.6% | 
